Record: PubChem BioAssay AID1159593 (NIAID, 2016)

- Screen: 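TLR pathway parts governing NF-kappaB p65 translocation after LPS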
- System: RAW264.7 macrophages of mouse, with reporters for p65 (GFP) and the Tnf promoter (mCherry)
- Reagents: single siRNA against mouse genes
- Time to read-out: 48 to 72 hours after siRNA transfection, then LPS for 40 min
- Challenge: LPS (Salmonella minnesota R595) for 40 min before fixation; dose not given
- Measurement: 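Imaged nuclear over cytoplasmic GFP-p65 intensity after 40 min LPS, normalised per plate by median and MAD, robust z-score versus negative controls, mean of replicates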
- Scale: p65 translocation z-score: higher = more nuclear NF-kappaB p65 after LPS
- Rule for the call: 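Activity score grows with absolute z: 25 beyond 1, 50 beyond 1.5, 75 beyond 2, 100 beyond 2.5; active calls here sit at about z 1.5 or more either way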
- Meaning of the calls: active = changed p65 translocation (either direction); inactive = no clear change
The whole screen tested 756 reagents; shown is a random part of them. Over the whole deposit, 137 (18%) were called active. 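Active means p65 translocation went either up or down; genes were judged on the median of six siRNAs, not single siRNAs.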 Entries without a mark were called inactive. The numbers tell different reagents against one gene apart. The record does not give: the amount of reagent.

With Tnfaip3 (tumor necrosis factor, alpha-induced protein 3) #1, what does the deposit list?
p65 translocation z-score: 0.0947

How did the screen score Tnfaip3 (tumor necrosis factor, alpha-induced protein 3) #2?
p65 translocation z-score: -1.19

Which result is listed for Tnfaip3 (tumor necrosis factor, alpha-induced protein 3) #3?
p65 translocation z-score: 1.46

For Tnfaip3 (tumor necrosis factor, alpha-induced protein 3) #4, how do the results read?
p65 translocation z-score: 0.379

What did the screen give for Tnfaip3 (tumor necrosis factor, alpha-induced protein 3) #5?
p65 translocation z-score: -0.818

For Tnfaip3 (tumor necrosis factor, alpha-induced protein 3) #6, what was measured?
p65 translocation z-score: -1.73 (active)

With Pik3r2 (phosphoinositide-3-kinase regulatory subunit 2) #1, how do the results read?
p65 translocation z-score: -0.807

How did the screen score Pik3r2 (phosphoinositide-3-kinase regulatory subunit 2) #2?
p65 translocation z-score: 0.0469

With Pik3r2 (phosphoinositide-3-kinase regulatory subunit 2) #3, what was measured?
p65 translocation z-score: 0.0558

With Pik3r2 (phosphoinositide-3-kinase regulatory subunit 2) #4, how do the results read?
p65 translocation z-score: -0.275

What is on record for Pik3r2 (phosphoinositide-3-kinase regulatory subunit 2) #5?
p65 translocation z-score: 1.3

What is on record for Pik3r2 (phosphoinositide-3-kinase regulatory subunit 2) #6?
p65 translocation z-score: 0.0213

For Il12b (interleukin 12b) #1, what does the deposit list?
p65 translocation z-score: -0.736

What is on record for Il12b (interleukin 12b) #2?
p65 translocation z-score: 0.992

For Il12b (interleukin 12b) #3, how do the results read?
p65 translocation z-score: 0.0913

What is on record for Il12b (interleukin 12b) #4?
p65 translocation z-score: -0.591

With Il12b (interleukin 12b) #5, what was measured?
p65 translocation z-score: -1.34

What is on record for Il12b (interleukin 12b) #6?
p65 translocation z-score: 0.333

What is on record for Chuk (conserved helix-loop-helix ubiquitous kinase) #1?
p65 translocation z-score: 1.33

What is on record for Chuk (conserved helix-loop-helix ubiquitous kinase) #2?
p65 translocation z-score: -0.993

How did the screen score Chuk (conserved helix-loop-helix ubiquitous kinase) #3?
p65 translocation z-score: 0.548

With Chuk (conserved helix-loop-helix ubiquitous kinase) #4, how do the results read?
p65 translocation z-score: 3.57 (active)

What did the screen give for Chuk (conserved helix-loop-helix ubiquitous kinase) #5?
p65 translocation z-score: -1.58 (active)

What is on record for Chuk (conserved helix-loop-helix ubiquitous kinase) #6?
p65 translocation z-score: 0.178

Which result is listed for Atf7 (activating transcription factor 7) #1?
p65 translocation z-score: -1.43

Which result is listed for Atf7 (activating transcription factor 7) #2?
p65 translocation z-score: -0.582

For Atf7 (activating transcription factor 7) #3, what does the deposit list?
p65 translocation z-score: -0.128

What did the screen give for Atf7 (activating transcription factor 7) #4?
p65 translocation z-score: -0.35

What did the screen give for Atf7 (activating transcription factor 7) #5?
p65 translocation z-score: 0.338

With Atf7 (activating transcription factor 7) #6, what was measured?
p65 translocation z-score: -0.846

With Irf5 (interferon regulatory factor 5) #1, how do the results read?
p65 translocation z-score: -0.506

For Irf5 (interferon regulatory factor 5) #2, what was measured?
p65 translocation z-score: -0.0321

With Irf5 (interferon regulatory factor 5) #3, what was measured?
p65 translocation z-score: -0.11

With Irf5 (interferon regulatory factor 5) #4, what was measured?
p65 translocation z-score: -0.0769

With Irf5 (interferon regulatory factor 5) #5, what was measured?
p65 translocation z-score: -0.366

Which result is listed for Irf5 (interferon regulatory factor 5) #6?
p65 translocation z-score: -2.36 (active)

With Map2k7 (mitogen-activated protein kinase kinase 7) #1, what was measured?
p65 translocation z-score: 1.11

Which result is listed for Map2k7 (mitogen-activated protein kinase kinase 7) #2?
p65 translocation z-score: -0.41

With Map2k7 (mitogen-activated protein kinase kinase 7) #3, what does the deposit list?
p65 translocation z-score: -0.701

With Map2k7 (mitogen-activated protein kinase kinase 7) #4, what was measured?
p65 translocation z-score: -1.57 (active)

With Map2k7 (mitogen-activated protein kinase kinase 7) #5, how do the results read?
p65 translocation z-score: -0.475

How did the screen score Map2k7 (mitogen-activated protein kinase kinase 7) #6?
p65 translocation z-score: -0.762

Which result is listed for Ripk3 (receptor-interacting serine-threonine kinase 3) #1?
p65 translocation z-score: -0.246

What is on record for Ripk3 (receptor-interacting serine-threonine kinase 3) #2?
p65 translocation z-score: 0.452

What is on record for Ripk3 (receptor-interacting serine-threonine kinase 3) #3?
p65 translocation z-score: -0.74

What is on record for Ripk3 (receptor-interacting serine-threonine kinase 3) #4?
p65 translocation z-score: -0.418

With Ripk3 (receptor-interacting serine-threonine kinase 3) #5, what was measured?
p65 translocation z-score: -0.166

What did the screen give for Ripk3 (receptor-interacting serine-threonine kinase 3) #6?
p65 translocation z-score: 1.58 (active)

With Irak4 (interleukin-1 receptor-associated kinase 4) #1, what was measured?
p65 translocation z-score: 0.494

With Irak4 (interleukin-1 receptor-associated kinase 4) #2, how do the results read?
p65 translocation z-score: -3.14 (active)

With Irak4 (interleukin-1 receptor-associated kinase 4) #3, what does the deposit list?
p65 translocation z-score: -2.05 (active)

What is on record for Irak4 (interleukin-1 receptor-associated kinase 4) #4?
p65 translocation z-score: -0.894

With Irak4 (interleukin-1 receptor-associated kinase 4) #5, what does the deposit list?
p65 translocation z-score: 1.25

With Irak4 (interleukin-1 receptor-associated kinase 4) #6, what does the deposit list?
p65 translocation z-score: -1.69 (active)

With Mapk12 (mitogen-activated protein kinase 12) #1, what does the deposit list?
p65 translocation z-score: 0.165

What did the screen give for Mapk12 (mitogen-activated protein kinase 12) #2?
p65 translocation z-score: -0.507

What is on record for Mapk12 (mitogen-activated protein kinase 12) #3?
p65 translocation z-score: -0.799

How did the screen score Mapk12 (mitogen-activated protein kinase 12) #4?
p65 translocation z-score: -0.498

For Mapk12 (mitogen-activated protein kinase 12) #5, what does the deposit list?
p65 translocation z-score: -0.776

How did the screen score Mapk12 (mitogen-activated protein kinase 12) #6?
p65 translocation z-score: -0.555

Records listed so far whose gene name starts with C or c (6):
Chuk (conserved helix-loop-helix ubiquitous kinase) #1 → p65 translocation z-score = 1.33
Chuk (conserved helix-loop-helix ubiquitous kinase) #2 → p65 translocation z-score = -0.993
Chuk (conserved helix-loop-helix ubiquitous kinase) #3 → p65 translocation z-score = 0.548
Chuk (conserved helix-loop-helix ubiquitous kinase) #4 → p65 translocation z-score = 3.57 (active)
Chuk (conserved helix-loop-helix ubiquitous kinase) #5 → p65 translocation z-score = -1.58 (active)
Chuk (conserved helix-loop-helix ubiquitous kinase) #6 → p65 translocation z-score = 0.178
